Results as given in PubChem BioAssay AID256 (DTP/NCI, 2004).
The list does not hold the whole screen: it gathers tests that were run many times, whatever their T/C, doses with no T/C, and many T/C values between a quarter and a half above the control. Further doses and runs are listed elsewhere. T/C is the treated group as % of the vehicle group. Some entries give survivors of the animals treated and no T/C: the source holds a T/C of zero for them, seemingly a mark for toxic or unscored doses. Some survivor counts are full or nearly so, which does not show that the dose was tolerated: survival well below the control is almost never listed, so the zero probably covers shortened survival too. Survivors were counted at the toxicity check, usually on the fifth day, unless a day is given; later deaths do not show. Schedule codes are those of the source, read here as Q, the interval in days (D) or hours (H), X, the number of doses. Some entries hold several experiments; their values stand side by side, smallest first. For survival time, the PubChem record calls one and a half times the control and up active, and a quarter to a half above the control has no call in these data; cut-offs in other NCI protocols can differ. Some T/C values are followed by the survivors on the day toxicity was checked, most often the fifth; without a count, all were alive then. Counts like (3×) give the number of equal values in this list.

Tested on: CD2F1 mice, L1210 leukemia ip, survival T/C
Assay: NCI In Vivo Anticancer Drug Screen. Data for tumor model L1210 Leukemia (intraperitoneal) in CD2F1 (CDF1) mice
Conditions: T/C endpoint: median survival time, higher T/C = longer survival
Method in brief: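 Compound-dosed mice with transplantable tumor versus matched vehicle controls; endpoint ratio T/C reported.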

With `O=P1(N(CCCl)CCCl)NCCCO1` (stereo not given) the T/C (dose: 50.0 mg/kg/injection, schedule: Q01DX001 (ip), vehicle: water, evaluated on day 5) was 146 % of control, the T/C (dose: 50.0 mg/kg/injection, schedule: Q01DX001 (ip), vehicle: water, evaluated on day 45) was 144 % of control and the T/C (dose: 60.0 mg/kg/injection, schedule: Q01DX009 (ip), vehicle: water, evaluated on day 5) was 145 % of control. The T/C (dose: 60.0 mg/kg/injection, schedule: Q01DX009 (ip), vehicle: water, evaluated on day 23) was 145 % of control, the T/C (dose: 62.5 mg/kg/injection, schedule: Q01DX001 (ip), vehicle: saline) was 113 (2×), 117, 119, 128 % of control and the T/C (dose: 62.5 mg/kg/injection, schedule: Q01DX001 (ip), vehicle: water) was 131 and 144 % of control. The T/C (dose: 64.8 mg/kg/injection, schedule: Q01DX001 (iv), vehicle: saline) was 134 % of control, the T/C (dose: 75.0 mg/kg/injection, schedule: Q10HX004 (ip), vehicle: saline) was 148 % of control and the T/C (dose: 80.0 mg/kg/injection, schedule: Q01DX005 (ip), vehicle: saline, evaluated on day 30) was 155, 169, 174, 180, 182, 186 (2×), 188 (3×), 190, 192, 193, 196, 197 (4×), 202 (2×), 204, 207, 213 (2×), 216, 219 % of control. The T/C (dose: 80.0 mg/kg/injection, schedule: Q01DX005 (ip), vehicle: saline, evaluated on day 35) was 222 % of control, the T/C (dose: 80.0 mg/kg/injection, schedule: Q01DX005 (ip), vehicle: saline, evaluated on day 60) was 181 and 207 % of control and the survivor count (dose: 80.0 mg/kg/injection, schedule: Q01DX005 (ip), vehicle: saline) was 5 of 6. The T/C (dose: 80.0 mg/kg/injection, schedule: Q01DX009 (ip), vehicle: saline, evaluated on day 30) was 108 (2×), 111, 113, 125, 153, 162, 179, 185, 197, 200, 207, 208, 211, 214, 216 (2×), 219 (2×), 222, 223, 228, 232, 238, 244, 246, 265 % of control, the T/C (dose: 80.0 mg/kg/injection, schedule: Q01DX009 (ip), vehicle: saline, evaluated on day 35) was 195 % of control and the T/C (dose: 80.0 mg/kg/injection, schedule: Q01DX009 (ip), vehicle: saline, evaluated on day 60) was 204 and 219 % of control. The T/C (dose: 80.0 mg/kg/injection, schedule: Q01DX009 (ip), vehicle: water, evaluated on day 5) was 125 % of control, the T/C (dose: 80.0 mg/kg/injection, schedule: Q01DX009 (ip), vehicle: water, evaluated on day 23) was 125 % of control and the T/C (dose: 100.0 mg/kg/injection, schedule: Q01DX001 (ip), vehicle: saline, evaluated on day 6) was 131 and 137 % of control. For the same compound, the T/C (dose: 100.0 mg/kg/injection, schedule: Q01DX001 (ip), vehicle: saline, evaluated on day 11) was 131 and 137 % of control, the T/C (dose: 100.0 mg/kg/injection, schedule: Q01DX001 (ip), vehicle: saline, evaluated on day 20) was 144 % of control and the T/C (dose: 100.0 mg/kg/injection, schedule: Q01DX001 (ip), vehicle: saline, evaluated on day 30) was 139, 140, 143 (2×), 145, 147, 148, 148 [5 of 6 alive], 149, 150 (2×), 153, 154 (3×), 156 (2×), 158 (2×), 160 (2×), 161 (2×), 164, 165, 168 (2×), 172, 175 % of control. For the same compound, the T/C (dose: 100.0 mg/kg/injection, schedule: Q01DX001 (ip), vehicle: saline, evaluated on day 35) was 151 % of control, the T/C (dose: 100.0 mg/kg/injection, schedule: Q01DX001 (ip), vehicle: saline, evaluated on day 60) was 144 and 171 % of control and the T/C (dose: 125.0 mg/kg/injection, schedule: Q01DX001 (ip), vehicle: saline) was 130, 132, 150, 159, 164 % of control. The T/C (dose: 125.0 mg/kg/injection, schedule: Q01DX001 (ip), vehicle: water) was 148 % of control, the T/C (dose: 160.0 mg/kg/injection, schedule: Q01DX005 (ip), vehicle: saline, evaluated on day 30) was 90, 102, 107, 109, 111, 118, 120 (2×), 123 (3×), 125, 138, 158, 160, 164, 172, 185, 188 [5 of 6 alive], 190, 204, 301, 370 (2×), 375 % of control (2×) and the T/C (dose: 160.0 mg/kg/injection, schedule: Q01DX005 (ip), vehicle: saline, evaluated on day 35) was 197 % of control. For the same compound, the T/C (dose: 160.0 mg/kg/injection, schedule: Q01DX005 (ip), vehicle: saline, evaluated on day 60) was 180 and 198 % of control, the survivor count (dose: 160.0 mg/kg/injection, schedule: Q01DX005 (ip), vehicle: saline) was 4 of 6 and the T/C (dose: 160.0 mg/kg/injection, schedule: Q01DX009 (ip), vehicle: saline, evaluated on day 30) was 88, 89, 91, 95, 98 [5 of 6 alive], 102, 103 (2×), 104, 106, 112 [5 of 6 alive], 113, 114 (3×), 116, 120, 123, 125, 132 (2×), 139, 141, 146, 148, 149, 158 % of control. The T/C (dose: 160.0 mg/kg/injection, schedule: Q01DX009 (ip), vehicle: saline, evaluated on day 35) was 127 % of control, the T/C (dose: 160.0 mg/kg/injection, schedule: Q01DX009 (ip), vehicle: saline, evaluated on day 60) was 124 and 134 % of control and the T/C (dose: 175.0 mg/kg/injection, schedule: Q01DX001 (ip), vehicle: saline) was 189 (2×), 194, 204, 219, 243 % of control. For the same compound, the T/C (dose: 200.0 mg/kg/injection, schedule: Q01DX001 (ip), vehicle: saline, evaluated on day 5) was 215 and 229 % of control, the T/C (dose: 200.0 mg/kg/injection, schedule: Q01DX001 (ip), vehicle: saline, evaluated on day 6) was 173 and 176 % of control and the T/C (dose: 200.0 mg/kg/injection, schedule: Q01DX001 (ip), vehicle: saline, evaluated on day 11) was 173 and 176 % of control. For the same compound, the T/C (dose: 200.0 mg/kg/injection, schedule: Q01DX001 (ip), vehicle: saline, evaluated on day 20) was 144 % of control, the T/C (dose: 200.0 mg/kg/injection, schedule: Q01DX001 (ip), vehicle: saline, evaluated on day 30) was 156, 174, 176, 178, 180, 186 (2×), 191 (2×), 193 (2×), 195, 200, 201, 203 (2×), 204 (2×), 209, 222, 225 (2×), 232, 240, 271, 320, 352, 370 % of control (2×) and the T/C (dose: 200.0 mg/kg/injection, schedule: Q01DX001 (ip), vehicle: saline, evaluated on day 35) was 188 % of control. For the same compound, the T/C (dose: 200.0 mg/kg/injection, schedule: Q01DX001 (ip), vehicle: saline, evaluated on day 60) was 148, 178, 292 % of control, the T/C (dose: 200.0 mg/kg/injection, schedule: Q01DX001 (ip), vehicle: water, evaluated on day 5) was 132 % of control and the T/C (dose: 200.0 mg/kg/injection, schedule: Q01DX001 (ip), vehicle: water, evaluated on day 45) was 127 % of control. For the same compound, the T/C (dose: 250.0 mg/kg/injection, schedule: Q01DX001 (ip), vehicle: saline, evaluated on day 30) was 151, 163, 168, 222, 357, 410 % of control [5 of 6 alive], the T/C (dose: 250.0 mg/kg/injection, schedule: Q01DX001 (ip), vehicle: saline, evaluated on day 60) was 160 % of control and the T/C (dose: 265.0 mg/kg/injection, schedule: Q01DX001 (ip), vehicle: saline) was 223, 523, 542 (2×), 548, 576 % of control. For the same compound, the T/C (dose: 300.0 mg/kg/injection, schedule: Q01DX001 (ip), vehicle: saline, evaluated on day 5) was 200, 253, 323 % of control, the T/C (dose: 300.0 mg/kg/injection, schedule: Q01DX001 (ip), vehicle: saline, evaluated on day 6) was 112, 188, 208 % of control and the T/C (dose: 300.0 mg/kg/injection, schedule: Q01DX001 (ip), vehicle: saline, evaluated on day 11) was 188 and 208 % of control. The T/C (dose: 400.0 mg/kg/injection, schedule: Q01DX001 (ip), vehicle: saline, evaluated on day 6) was 200 and 206 % of control, the T/C (dose: 400.0 mg/kg/injection, schedule: Q01DX001 (ip), vehicle: saline, evaluated on day 11) was 200 and 206 % of control and the T/C (dose: 400.0 mg/kg/injection, schedule: Q01DX001 (ip), vehicle: saline, evaluated on day 30) was 88, 95, 122 [5 of 6 alive], 125 [5 of 6 alive], 132 [4 of 6 alive], 139, 139 [5 of 6 alive], 177 [5 of 6 alive], 237, 275, 283, 296, 322, 337 [4 of 6 alive], 340, 345, 348, 361, 361 [5 of 6 alive], 370 (6×), 370 [5 of 6 alive], 375 % of control (2×). The T/C (dose: 400.0 mg/kg/injection, schedule: Q01DX001 (ip), vehicle: saline, evaluated on day 35) was 432 % of control, the T/C (dose: 400.0 mg/kg/injection, schedule: Q01DX001 (ip), vehicle: saline, evaluated on day 60) was 409 and 731 % of control and the survivor count (dose: 400.0 mg/kg/injection, schedule: Q01DX001 (ip), vehicle: saline) was 4 of 6. The survivor count (dose: 400.0 mg/kg/injection, schedule: Q01DX001 (ip), vehicle: water) was 8 of 10, the T/C (dose: 500.0 mg/kg/injection, schedule: Q01DX001 (ip), vehicle: saline, evaluated on day 6) was 120 % of control and the T/C (dose: 500.0 mg/kg/injection, schedule: Q01DX001 (ip), vehicle: saline, evaluated on day 30) was 357 and 370 % of control. For the same compound, the survivor count (dose: 500.0 mg/kg/injection, schedule: Q01DX001 (ip), vehicle: saline) was 2 of 6 and 3 of 6, the survivor count (dose: 500.0 mg/kg/injection, schedule: Q01DX001 (ip), vehicle: water) was 2 of 6 and 5 of 6 and the T/C (dose: 600.0 mg/kg/injection, schedule: Q01DX001 (ip), vehicle: saline) was 131 % of control.
